Reference: patent US10725001B2, “Liquid crystal composition, pH sensing device using the same, and pH sensing device kit using the same” (Tamkang University, priority 2016, dated 2020)

What was measured:
[1] = Optical signals of four sensing devices positioned at the same time in solutions of different pH, observed under a microscope
Experimental: (§1) The DMOAP-substrate is cut to have a size of 0.5 cm×0.5 cm, on which the frame is positioned. The liquid crystal composition prepared (about 0.25 μl) is drawn with a micropipette and filled in the grid of the frame. A casing having internal space of about 10 mm×25 mm×5 mm is prepared with polydimethylsiloxane. The casing has an inlet and an outlet through which the flowing substance passes. The prepared substrate and the frame filled with the liquid crystal composition are placed in the space of the casing, and two polarizers are arranged and secured at two sides of the casing, to obtain a sensing device. The polarization directions of the two polarizers are perpendicular. The liquid crystal in the liquid crystal composition may be aligned orderly along a direction perpendicular to the two polarizers.
Referring to FIGS. 16(a) to 16(f), four sensing devices containing the liquid crystal composition blended with 0.3% of the compound of Formula (I-1), (I-2), (I-3), or (I-4) (from right to left) are positioned in solutions having different pH values respectively. The light transmittance of the sensing devices in the solutions having different pH values are observed under a microscope, to obtain corresponding optical signals.
Referring to FIGS. 17(a) to 17(g), four sensing devices containing the liquid crystal composition blended with 0.3%, 0.4%, 0.5%, and 0.6% of the compound of Formula (I-1) are positioned in solutions of pH 6.0, pH 6.2, pH 6.4, pH 6.6, pH 6.8, pH 7.0 and pH 7.2 respectively. The light transmittance of the sensing devices in the solutions having different pH values are observed under a microscope, to obtain corresponding optical signals.

[2] = Optical signal of a single sensing device (5CB liquid crystal composition blended with dopant) in solutions of different pH, observed under a microscope
Experimental: as §1
Referring to FIGS. 8(a) to 8(g), 9(a) to 9(g), FIGS. 10(a) to 10(g), and 11(a) to 11(g), sensing devices containing the liquid crystal composition blended with 0.3% of the compound of Formula (I-1), (I-2), (I-3), or (I-4) are positioned in solutions having different pH values respectively. The light transmittance of the sensing devices in the solutions having different pH values are observed under a microscope, to obtain corresponding optical signals. FIGS. 8(a) to 8(g) show optical signals obtained from a sensing device containing the liquid crystal composition blended with 0.3% of the compound of Formula (I-1) positioned in a solution of pH 6.8, pH 7.0, pH 7.2, pH 7.4, pH 7.6, pH 8.0, and pH 8.2 respectively. FIGS. 9(a) to 9(g) show optical signals obtained from a sensing device containing the liquid crystal composition blended with 0.3% of the compound of Formula (I-2) positioned in a solution of pH 6.8, pH 7.0, pH 7.2, pH 7.4, pH 7.6, pH 8.0, and pH 8.2 respectively. FIGS. 10(a) to 10(g) show optical signals obtained from a sensing device containing the liquid crystal composition blended with 0.3% of the compound of Formula (I-3) positioned in a solution of pH 6.8, pH 7.0, pH 7.2, pH 7.4, pH 7.6, pH 8.0, and pH 8.2 respectively. FIGS. 11(a) to 11(g) show optical signals obtained from a sensing device containing the liquid crystal composition blended with 0.3% of the compound of Formula (I-4) positioned in a solution of pH 6.8, pH 7.0, pH 7.2, pH 7.4, pH 7.6, pH 8.0, and pH 8.2 respectively.
Referring to FIGS. 12(a) to 12(f), 13(a) to 13(f), 14(a) to 14(f), and 15(a) to 15(f), sensing devices containing the liquid crystal composition blended with 0.3%, 0.4%, 0.5%, and 0.6% of the compound of Formula (I-1) are positioned in solutions having different pH values respectively. The light transmittance of the sensing devices in the solutions having different pH values are observed under a microscope, to obtain corresponding optical signals. FIGS. 12(a) to 12(f) show optical signals obtained from a sensing device containing the liquid crystal composition blended with 0.3% of the compound of Formula (I-1) positioned in a solution of pH 6.0, pH 6.2, pH 6.4, pH 6.6, pH 6.8 and pH 7.0 respectively. FIGS. 13(a) to 13(f) show optical signals obtained from a sensing device containing the liquid crystal composition blended with 0.4% of the compound of Formula (I-1) positioned in a solution of pH 6.0, pH 6.2, pH 6.4, pH 6.6, pH 6.8 and pH 7.0 respectively. FIGS. 14(a) to 14(f) show optical signals obtained from a sensing device containing the liquid crystal composition blended with 0.5% of the compound of Formula (I-1) positioned in a solution of pH 6.0, pH 6.2, pH 6.4, pH 6.6, pH 6.8 and pH 7.0 respectively. FIGS. 15(a) to 15(f) show optical signals obtained from a sensing device containing the liquid crystal composition blended with 0.6% of the compound of Formula (I-1) positioned in a solution of pH 6.0, pH 6.2, pH 6.4, pH 6.6, pH 6.8 and pH 7.0 respectively.

[3] = solution of pH 7.2, 0.3% of the compound, FIG. 16(c)
[4] = liquid crystal composition blended with 0.3% of the compound, FIGS. 8-11, pH 6.8-8.2

CCCCCCc1ccc(-c2ccc(C(=O)O)cc2)cc1 [Formula (I-1)]
optical signal of sensing device ([1]; solution of pH 6.2, 0.6% of the compound, FIG. 17(b)): dark optical signal | optical signal of sensing device ([1]; solution of pH 6.4, 0.5% of the compound, FIG. 17(c)): dark optical signal | optical signal of sensing device ([1]; solution of pH 6.4, 0.6% of the compound, FIG. 17(c)): dark optical signal | optical signal of sensing device ([1]; solution of pH 6.6, 0.5% of the compound, FIG. 17(d)): dark optical signal | optical signal of sensing device ([1]; solution of pH 6.6, 0.6% of the compound, FIG. 17(d)): dark optical signal | optical signal of sensing device ([1]; solution of pH 6.8, 0.3% of the compound, FIG. 17(e)): bright optical signal | optical signal of sensing device ([1]; solution of pH 7.0, 0.3% of the compound, FIG. 16(b)): dark optical signal | optical signal of sensing device ([1]; solution of pH 7.0, 0.3% of the compound, FIG. 17(f)): bright optical signal | optical signal of sensing device [1, 3]: dark optical signal | pH of solution at or above which the sensing device produces a dark optical signal ([2]; blended with 0.3% of the compound, FIG. 12, pH 6.0-7.0): ≥ 6.8 | pH of solution at or above which the sensing device produces a dark optical signal ([2]; blended with 0.4% of the compound, FIG. 13, pH 6.0-7.0): ≥ 6.8 | pH of solution at or above which the sensing device produces a dark optical signal ([2]; blended with 0.5% of the compound, FIG. 14, pH 6.0-7.0): ≥ 6.6 | pH of solution at or above which the sensing device produces a dark optical signal ([2]; blended with 0.6% of the compound, FIG. 15, pH 6.0-7.0): ≥ 6.4 | pH of solution at or above which the sensing device produces a dark optical signal [2, 4]: ≥ 7

CCCCCCCCOc1ccc(-c2ccc(C(=O)O)cc2)cc1 [Formula (I-2)]
optical signal of sensing device [1, 3]: dark optical signal | pH of solution at or above which the sensing device produces a dark optical signal [2, 4]: ≥ 7.2

CCCCCCCCCCOc1ccc(-c2ccc(C(=O)O)cc2)cc1 [Formula (I-3)]
pH of solution at or above which the sensing device produces a dark optical signal [2, 4]: ≥ 7.6

CCCCCCCCCCCCOc1ccc(-c2ccc(C(=O)O)cc2)cc1 [Formula (I-4)]
optical signal of sensing device ([1]; solution of pH 7.4, 0.3% of the compound, FIG. 16(d)): bright optical signal | optical signal of sensing device ([1]; solution of pH 7.6, 0.3% of the compound, FIG. 16(e)): bright optical signal | pH of solution at or above which the sensing device produces a dark optical signal [2, 4]: ≥ 8.2
